Data as given in PubChem BioAssay AID1259254 (NCATS, 2017)

Assay: 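Gene knock-downs that lead to re-replication, shown by excess G2 DNA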 (primary screen)
Cell system: human HCT116 colorectal cancer cells
Reagents: single siRNA against human genes
Timing: 3 days
Measurement: 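Nuclei stained with Hoechst and imaged; cell-cycle phase assigned by DNA content; G2 share scaled per plate, non-targeting siRNA 0%, GMNN siRNA 100%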
Direction: G2 robust z-score and G2 cells, % of GMNN control: higher = more G2 cells, more excess DNA replication; raw share of cells in G2: higher = larger share of cells with G2 DNA content
Call rule: 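An siRNA counts as active if its G2 robust z-score lies at least 5 MADs above the screen median; here such calls match roughly 38% of GMNN control or more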
The whole screen tested about 59,000 reagents; shown is a random part of them. Of all reagents, about 1,550 (2.6%) are marked active. 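G2 share is only a proxy for re-replication; each gene was hit by three separate siRNAs, and active genes were retested.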 The raw values are shown without normalisation. Reagents against one gene are numbered here. Not stated in the record: the amount of reagent.

| gene | siRNA no. | G2 robust z-score | G2 cells, % of GMNN control | raw share of cells in G2 (%) | outcome |
| --- | --- | --- | --- | --- | --- |
| ATP5PB | 1 | 1.55 | 13.9 | 10 | inactive |
| ATP5PB | 2 | -0.921 | -3.51 | 2.68 | inactive |
| ATP5PB | 3 | 0.291 | 5.02 | 6.43 | inactive |
| SIX1 | 1 | -0.953 | -3.74 | 3.38 | inactive |
| SIX1 | 2 | 1.34 | 12.4 | 9.13 | inactive |
| SIX1 | 3 | -1.21 | -5.57 | 1.34 | inactive |
| RAB11FIP4 | 1 | -0.336 | 0.604 | 4.41 | inactive |
| RAB11FIP4 | 2 | -0.0731 | 2.45 | 6.45 | inactive |
| RAB11FIP4 | 3 | 3.22 | 25.6 | 14.3 | inactive |
| OR4C16 | 1 | -0.209 | 1.5 | 4.12 | inactive |
| OR4C16 | 2 | -0.722 | -2.11 | 2.41 | inactive |
| OR4C16 | 3 | 1.25 | 11.8 | 6.96 | inactive |
| GLYATL1P4 | 1 | 1.85 | 16 | 9.73 | inactive |
| GLYATL1P4 | 2 | 1.6 | 14.2 | 8.39 | inactive |
| GLYATL1P4 | 3 | 0.437 | 6.04 | 4.91 | inactive |
| F2 | 1 | 0.322 | 5.23 | 7.38 | inactive |
| F2 | 2 | -1.43 | -7.06 | 2.41 | inactive |
| F2 | 3 | -0.261 | 1.13 | 4.33 | inactive |
| BSN | 1 | 0.0896 | 3.6 | 6 | inactive |
| BSN | 2 | -1.31 | -6.22 | 3.08 | inactive |
| BSN | 3 | 0.0572 | 3.37 | 6.07 | inactive |
| RFNG | 1 | 0.665 | 7.64 | 7.61 | inactive |
| RFNG | 2 | 1.42 | 13 | 9.63 | inactive |
| RFNG | 3 | -0.464 | -0.294 | 4.05 | inactive |
| PACRGL | 1 | 0.785 | 8.49 | 7.38 | inactive |
| PACRGL | 2 | 0.389 | 5.7 | 4.91 | inactive |
| PACRGL | 3 | -0.15 | 1.91 | 3.27 | inactive |
| TUT1 | 1 | 0.623 | 7.35 | 7.78 | inactive |
| TUT1 | 2 | 0.229 | 4.58 | 6.66 | inactive |
| TUT1 | 3 | -0.00214 | 2.95 | 3.48 | inactive |
| EOMES | 1 | -1.62 | -8.44 | 1.68 | inactive |
| EOMES | 2 | 0.746 | 8.21 | 8.15 | inactive |
| EOMES | 3 | -1.37 | -6.7 | 1.5 | inactive |
| PLAT | 1 | 7.72 | 57.3 | 23.4 | active |
| PLAT | 2 | -0.429 | -0.0493 | 4.29 | inactive |
| PLAT | 3 | -0.194 | 1.6 | 3.98 | inactive |
| TEX35 | 1 | -0.476 | -0.381 | 3.98 | inactive |
| TEX35 | 2 | -1.36 | -6.59 | 1.5 | inactive |
| TEX35 | 3 | -0.318 | 0.731 | 2.63 | inactive |
| OR51G1 | 1 | 0.448 | 6.12 | 7.25 | inactive |
| OR51G1 | 2 | -0.515 | -0.658 | 4.31 | inactive |
| OR51G1 | 3 | 1.42 | 13 | 6.12 | inactive |
| IGFBP7-AS1 | 1 | -0.505 | -0.588 | 3.36 | inactive |
| IGFBP7-AS1 | 2 | -0.748 | -2.3 | 2.34 | inactive |
| IGFBP7-AS1 | 3 | 0.454 | 6.16 | 5.16 | inactive |
| RPS10P29 | 1 | 0.812 | 8.68 | 8.36 | inactive |
| RPS10P29 | 2 | 1.54 | 13.8 | 8.51 | inactive |
| RPS10P29 | 3 | -0.668 | -1.73 | 2.65 | inactive |
| SLC66A1LP | 1 | 0.13 | 3.88 | 4.42 | inactive |
| SLC66A1LP | 2 | -0.898 | -3.35 | 2.7 | inactive |
| SLC66A1LP | 3 | -0.41 | 0.0825 | 2.94 | inactive |
| GLT8D2 | 1 | 0.239 | 4.65 | 5.88 | inactive |
| GLT8D2 | 2 | 0.000248 | 2.97 | 5.89 | inactive |
| GLT8D2 | 3 | -0.868 | -3.14 | 4.12 | inactive |
| MED17 | 1 | 0.509 | 6.55 | 5.7 | inactive |
| MED17 | 2 | -0.141 | 1.97 | 6.87 | inactive |
| MED17 | 3 | 0.35 | 5.43 | 5.61 | inactive |
| GPRC5D | 1 | -0.133 | 2.03 | 6.57 | inactive |
| GPRC5D | 2 | 0.105 | 3.7 | 5.81 | inactive |
| GPRC5D | 3 | -1.28 | -6 | 1.43 | inactive |
| KBTBD11 | 1 | -0.365 | 0.401 | 5.51 | inactive |
| KBTBD11 | 2 | 0.586 | 7.09 | 6.9 | inactive |
| KBTBD11 | 3 | -0.00963 | 2.9 | 4.46 | inactive |
| FBXO28 | 1 | 1.09 | 10.6 | 9.16 | inactive |
| FBXO28 | 2 | 0.417 | 5.9 | 6.57 | inactive |
| FBXO28 | 3 | -0.0713 | 2.47 | 4.1 | inactive |
| NME5 | 1 | -0.247 | 1.23 | 6.01 | inactive |
| NME5 | 2 | -1.26 | -5.92 | 3.42 | inactive |
| NME5 | 3 | -0.712 | -2.04 | 3.31 | inactive |

A stretch from the list above, as a working copy:
| gene | siRNA no. | G2 robust z-score | G2 cells, % of GMNN control | raw share of cells in G2 (%) | outcome |
| --- | --- | --- | --- | --- | --- |
| GLYATL1P4 | 3 | 0.437 | 6.04 | 4.91 | inactive |
| F2 | 1 | 0.322 | 5.23 | 7.38 | inactive |
| F2 | 2 | -1.43 | -7.06 | 2.41 | inactive |
| F2 | 3 | -0.261 | 1.13 | 4.33 | inactive |
| BSN | 1 | 0.0896 | 3.6 | 6 | inactive |
| BSN | 2 | -1.31 | -6.22 | 3.08 | inactive |
